The values that follow come from PMC4223017, “Structural Model of the hUbA1-UbcH10 Quaternary Complex: In Silico and Experimental Analysis of the Protein-Protein Interactions between E1, E2 and Ubiquitin” (PLoS ONE, 2014).

The target in this experiment is T1, GST-UbcH10 (UniProt O00762 1-179).
T1 construct: UbcH10, a Ubiquitin Conjugation Enzyme (E2); PCR product cloned into pGEX-4T1; The GST tag is cleavable but the fusion GST-UbcH10 was coated on the wells; PDB 1I7K (used only for modelling) lacks the first 30 residues and has Ser114; nothing says that the ELISA construct has these limits; also called E2; recombinant GST-UbcH10; source: E. coli BL21 (DE3) RP, purified (GST-trap column, dialysed …)
T1 sequence (looked up): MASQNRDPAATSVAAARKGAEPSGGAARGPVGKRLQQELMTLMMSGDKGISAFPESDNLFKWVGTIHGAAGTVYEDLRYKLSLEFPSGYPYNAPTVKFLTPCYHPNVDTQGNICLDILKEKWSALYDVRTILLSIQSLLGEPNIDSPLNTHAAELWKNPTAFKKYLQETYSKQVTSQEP
In words: ELISA; wells coated overnight at 4°C with 100 µg/ml GST-UbcH10 in PBS, 1 mM TCEP; biotinylated peptides at 2.2, 11, 22, 44, 108 µM in PBS (1 mM TCEP for U1 and ScrU1); detection with streptavidin-HRP, reading at 490 nm; apparent KD; both purified. (ELISA stands for enzyme-linked immunosorbent assay.)

No constants are given. Whether binding was seen depends on the method and setting.

For the molecule RDEFEGLFKQPAEN (N-terminus biotinylated (N-(+)-biotinyl-6-aminocaproic acid); C-terminal amide) [S2 peptide (hUbA1 SCCH region, helix H19, 649-662)], the binding result is on record as “no binding (tested: 108 µM)”.
